The values that follow come from the supplement of paper PMC12819154, “High-throughput peptide-centric local stability assay extends protein–ligand identification to membrane proteins, tissues and bacteria” (Nature Structural & Molecular Biology, 2025).

Sequences of proteins named here, by UniProt entry; tags and fusion partners are left off. A change or cut given only in a name is not applied to a line headed by its entry.
UniProt Q9BQ70: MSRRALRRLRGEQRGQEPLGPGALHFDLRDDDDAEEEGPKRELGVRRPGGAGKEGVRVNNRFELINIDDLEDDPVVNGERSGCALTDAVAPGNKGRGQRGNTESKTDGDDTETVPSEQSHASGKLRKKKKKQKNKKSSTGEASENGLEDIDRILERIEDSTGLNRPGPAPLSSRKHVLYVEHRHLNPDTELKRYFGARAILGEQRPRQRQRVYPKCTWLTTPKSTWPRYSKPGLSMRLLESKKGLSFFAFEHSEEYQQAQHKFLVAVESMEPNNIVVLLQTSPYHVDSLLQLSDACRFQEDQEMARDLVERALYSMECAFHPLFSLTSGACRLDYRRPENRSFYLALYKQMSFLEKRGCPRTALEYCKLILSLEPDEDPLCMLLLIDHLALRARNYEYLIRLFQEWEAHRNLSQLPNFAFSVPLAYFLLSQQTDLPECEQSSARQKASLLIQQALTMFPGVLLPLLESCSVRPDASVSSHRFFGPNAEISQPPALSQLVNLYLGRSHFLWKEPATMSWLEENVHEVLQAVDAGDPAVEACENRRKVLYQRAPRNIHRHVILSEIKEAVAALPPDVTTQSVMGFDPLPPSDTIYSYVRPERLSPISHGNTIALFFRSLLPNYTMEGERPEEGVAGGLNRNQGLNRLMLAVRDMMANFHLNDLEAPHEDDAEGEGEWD
UniProt Q99766: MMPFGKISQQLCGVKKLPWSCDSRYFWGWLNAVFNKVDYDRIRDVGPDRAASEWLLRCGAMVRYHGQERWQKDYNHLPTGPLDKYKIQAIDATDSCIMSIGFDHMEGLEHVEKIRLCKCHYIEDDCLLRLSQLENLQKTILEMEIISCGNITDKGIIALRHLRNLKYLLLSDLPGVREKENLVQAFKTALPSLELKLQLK
UniProt Q9BRX9: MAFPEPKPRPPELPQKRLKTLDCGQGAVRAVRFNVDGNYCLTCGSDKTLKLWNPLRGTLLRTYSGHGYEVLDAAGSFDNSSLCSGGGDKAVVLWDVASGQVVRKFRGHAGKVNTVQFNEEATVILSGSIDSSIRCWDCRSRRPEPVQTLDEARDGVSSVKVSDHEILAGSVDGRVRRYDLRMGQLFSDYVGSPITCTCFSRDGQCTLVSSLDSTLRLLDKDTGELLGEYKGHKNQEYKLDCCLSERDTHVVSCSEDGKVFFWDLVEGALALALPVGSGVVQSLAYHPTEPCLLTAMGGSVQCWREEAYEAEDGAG
UniProt Q99848: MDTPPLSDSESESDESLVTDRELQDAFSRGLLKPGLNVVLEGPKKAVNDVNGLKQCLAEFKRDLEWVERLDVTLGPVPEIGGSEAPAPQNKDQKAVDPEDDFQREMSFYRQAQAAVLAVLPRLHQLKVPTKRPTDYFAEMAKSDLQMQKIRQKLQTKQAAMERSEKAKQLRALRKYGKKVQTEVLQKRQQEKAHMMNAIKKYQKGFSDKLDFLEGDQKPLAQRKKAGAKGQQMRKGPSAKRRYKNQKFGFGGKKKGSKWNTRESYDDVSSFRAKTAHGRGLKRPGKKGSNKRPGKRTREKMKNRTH
UniProt Q9BRH9: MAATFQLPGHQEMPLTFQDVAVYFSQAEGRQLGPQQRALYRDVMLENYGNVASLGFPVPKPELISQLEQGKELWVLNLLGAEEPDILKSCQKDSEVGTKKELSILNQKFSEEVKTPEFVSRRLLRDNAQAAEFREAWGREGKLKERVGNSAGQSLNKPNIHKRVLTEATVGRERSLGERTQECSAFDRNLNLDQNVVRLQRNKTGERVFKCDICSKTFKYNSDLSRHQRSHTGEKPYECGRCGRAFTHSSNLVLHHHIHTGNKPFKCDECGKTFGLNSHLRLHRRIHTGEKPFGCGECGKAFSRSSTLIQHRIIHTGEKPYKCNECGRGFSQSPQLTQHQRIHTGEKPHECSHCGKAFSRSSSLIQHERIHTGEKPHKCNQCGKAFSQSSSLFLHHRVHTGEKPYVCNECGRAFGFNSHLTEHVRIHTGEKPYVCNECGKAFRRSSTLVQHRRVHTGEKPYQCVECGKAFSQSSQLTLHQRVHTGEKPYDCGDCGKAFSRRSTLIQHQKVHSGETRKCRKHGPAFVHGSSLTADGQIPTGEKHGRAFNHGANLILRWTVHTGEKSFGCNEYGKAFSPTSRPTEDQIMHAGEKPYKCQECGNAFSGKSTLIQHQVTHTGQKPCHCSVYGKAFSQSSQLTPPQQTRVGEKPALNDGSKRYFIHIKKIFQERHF
UniProt Q96SB4, whole entry: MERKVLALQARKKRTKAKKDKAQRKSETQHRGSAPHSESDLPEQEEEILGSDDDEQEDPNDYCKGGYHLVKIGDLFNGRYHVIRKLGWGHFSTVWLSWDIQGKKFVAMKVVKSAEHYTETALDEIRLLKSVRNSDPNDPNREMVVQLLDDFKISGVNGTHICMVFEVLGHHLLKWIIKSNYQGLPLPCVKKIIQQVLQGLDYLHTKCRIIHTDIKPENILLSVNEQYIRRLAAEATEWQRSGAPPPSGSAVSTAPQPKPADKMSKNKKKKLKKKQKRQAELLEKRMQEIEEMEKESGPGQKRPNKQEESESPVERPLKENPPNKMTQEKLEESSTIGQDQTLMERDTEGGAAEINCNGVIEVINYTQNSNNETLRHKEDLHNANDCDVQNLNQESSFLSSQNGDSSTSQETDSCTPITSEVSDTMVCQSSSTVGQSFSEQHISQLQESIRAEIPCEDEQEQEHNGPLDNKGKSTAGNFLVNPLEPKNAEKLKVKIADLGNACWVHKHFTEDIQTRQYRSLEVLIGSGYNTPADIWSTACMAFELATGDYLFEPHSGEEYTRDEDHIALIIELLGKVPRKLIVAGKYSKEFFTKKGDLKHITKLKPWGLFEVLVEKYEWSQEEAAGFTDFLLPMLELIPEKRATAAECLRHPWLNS
UniProt Q99496: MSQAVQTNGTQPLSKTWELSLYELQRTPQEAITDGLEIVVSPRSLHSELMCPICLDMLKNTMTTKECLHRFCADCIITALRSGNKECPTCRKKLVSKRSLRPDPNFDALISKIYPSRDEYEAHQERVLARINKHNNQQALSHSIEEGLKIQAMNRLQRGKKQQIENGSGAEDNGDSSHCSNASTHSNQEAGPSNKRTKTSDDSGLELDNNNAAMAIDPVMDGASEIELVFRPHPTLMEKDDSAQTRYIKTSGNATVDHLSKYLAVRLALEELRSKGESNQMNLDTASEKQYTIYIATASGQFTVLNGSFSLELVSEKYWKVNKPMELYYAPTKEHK
UniProt Q96SZ6: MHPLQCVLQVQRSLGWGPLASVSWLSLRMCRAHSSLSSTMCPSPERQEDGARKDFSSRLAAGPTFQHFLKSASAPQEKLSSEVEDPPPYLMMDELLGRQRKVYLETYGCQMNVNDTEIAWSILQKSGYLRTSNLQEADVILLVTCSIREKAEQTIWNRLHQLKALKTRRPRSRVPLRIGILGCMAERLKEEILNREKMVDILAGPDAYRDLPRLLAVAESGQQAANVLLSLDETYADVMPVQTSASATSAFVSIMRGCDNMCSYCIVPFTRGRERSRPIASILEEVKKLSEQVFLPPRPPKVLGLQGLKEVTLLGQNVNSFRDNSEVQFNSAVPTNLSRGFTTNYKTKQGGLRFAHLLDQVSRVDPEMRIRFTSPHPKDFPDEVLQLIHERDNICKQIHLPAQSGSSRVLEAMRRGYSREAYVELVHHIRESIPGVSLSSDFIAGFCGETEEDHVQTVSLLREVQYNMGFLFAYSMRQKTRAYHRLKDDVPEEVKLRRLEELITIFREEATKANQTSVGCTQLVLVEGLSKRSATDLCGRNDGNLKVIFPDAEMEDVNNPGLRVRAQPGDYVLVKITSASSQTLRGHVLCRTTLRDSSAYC
UniProt Q9BRR9: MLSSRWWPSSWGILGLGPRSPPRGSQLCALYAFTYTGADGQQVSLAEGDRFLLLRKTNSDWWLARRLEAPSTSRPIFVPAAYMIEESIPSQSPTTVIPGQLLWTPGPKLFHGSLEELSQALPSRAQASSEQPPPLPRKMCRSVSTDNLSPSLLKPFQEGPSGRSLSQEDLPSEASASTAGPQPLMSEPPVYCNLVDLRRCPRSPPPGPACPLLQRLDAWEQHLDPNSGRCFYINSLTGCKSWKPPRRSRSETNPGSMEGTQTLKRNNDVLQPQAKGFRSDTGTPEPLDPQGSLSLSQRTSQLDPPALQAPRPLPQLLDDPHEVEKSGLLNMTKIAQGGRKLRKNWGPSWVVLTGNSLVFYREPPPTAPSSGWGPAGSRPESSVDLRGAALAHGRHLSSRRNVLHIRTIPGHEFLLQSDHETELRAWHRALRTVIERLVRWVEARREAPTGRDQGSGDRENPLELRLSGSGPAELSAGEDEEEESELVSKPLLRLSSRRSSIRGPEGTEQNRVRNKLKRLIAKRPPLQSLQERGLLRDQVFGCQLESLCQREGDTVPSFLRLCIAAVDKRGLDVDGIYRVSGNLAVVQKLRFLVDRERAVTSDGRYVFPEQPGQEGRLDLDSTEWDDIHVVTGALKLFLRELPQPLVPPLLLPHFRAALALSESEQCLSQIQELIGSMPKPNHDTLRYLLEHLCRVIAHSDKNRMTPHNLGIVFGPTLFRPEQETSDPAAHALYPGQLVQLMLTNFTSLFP
UniProt Q9BQ61: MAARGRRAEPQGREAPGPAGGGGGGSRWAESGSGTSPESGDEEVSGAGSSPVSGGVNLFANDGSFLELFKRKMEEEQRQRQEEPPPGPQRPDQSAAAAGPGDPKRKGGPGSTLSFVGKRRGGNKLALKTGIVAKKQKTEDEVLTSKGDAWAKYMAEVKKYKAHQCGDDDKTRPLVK
UniProt Q9BTV7: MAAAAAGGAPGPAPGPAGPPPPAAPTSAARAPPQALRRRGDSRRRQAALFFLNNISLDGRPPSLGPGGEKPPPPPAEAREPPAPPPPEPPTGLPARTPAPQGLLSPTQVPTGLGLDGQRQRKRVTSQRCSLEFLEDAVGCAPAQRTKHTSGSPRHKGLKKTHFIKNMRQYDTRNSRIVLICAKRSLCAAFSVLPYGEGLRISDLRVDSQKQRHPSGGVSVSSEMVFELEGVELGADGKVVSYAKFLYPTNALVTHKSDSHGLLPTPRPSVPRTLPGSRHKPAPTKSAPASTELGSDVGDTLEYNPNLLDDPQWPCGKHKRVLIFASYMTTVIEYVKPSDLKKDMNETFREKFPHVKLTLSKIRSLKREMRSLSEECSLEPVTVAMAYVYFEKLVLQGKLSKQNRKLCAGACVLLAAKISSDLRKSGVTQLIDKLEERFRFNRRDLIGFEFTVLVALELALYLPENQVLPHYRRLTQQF
UniProt Q9BUN5: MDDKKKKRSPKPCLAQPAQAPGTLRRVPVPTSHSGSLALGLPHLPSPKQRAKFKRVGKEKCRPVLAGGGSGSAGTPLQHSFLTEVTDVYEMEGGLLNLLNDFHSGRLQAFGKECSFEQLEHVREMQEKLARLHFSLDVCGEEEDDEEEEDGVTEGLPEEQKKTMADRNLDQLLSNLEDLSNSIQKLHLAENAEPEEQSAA
UniProt Q9BU89: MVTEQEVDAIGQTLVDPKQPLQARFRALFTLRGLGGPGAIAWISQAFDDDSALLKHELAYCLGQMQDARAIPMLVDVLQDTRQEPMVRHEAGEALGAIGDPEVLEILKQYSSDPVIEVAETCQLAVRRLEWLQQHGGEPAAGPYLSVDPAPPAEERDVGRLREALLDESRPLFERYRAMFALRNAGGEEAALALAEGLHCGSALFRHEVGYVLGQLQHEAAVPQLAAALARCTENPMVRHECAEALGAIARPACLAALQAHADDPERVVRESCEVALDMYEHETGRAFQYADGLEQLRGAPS
UniProt Q99986: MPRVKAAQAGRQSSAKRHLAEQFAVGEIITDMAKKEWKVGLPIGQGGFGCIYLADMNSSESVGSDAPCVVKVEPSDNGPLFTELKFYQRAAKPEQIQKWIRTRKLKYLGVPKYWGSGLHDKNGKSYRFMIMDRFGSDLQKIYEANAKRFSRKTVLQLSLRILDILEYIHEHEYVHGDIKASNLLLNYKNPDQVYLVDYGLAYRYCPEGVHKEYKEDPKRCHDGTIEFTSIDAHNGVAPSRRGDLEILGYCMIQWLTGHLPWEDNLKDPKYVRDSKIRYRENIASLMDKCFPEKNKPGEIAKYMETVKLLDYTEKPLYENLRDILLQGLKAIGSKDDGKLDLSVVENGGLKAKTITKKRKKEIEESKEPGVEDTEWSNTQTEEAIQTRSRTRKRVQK
UniProt Q9BQ67, whole entry: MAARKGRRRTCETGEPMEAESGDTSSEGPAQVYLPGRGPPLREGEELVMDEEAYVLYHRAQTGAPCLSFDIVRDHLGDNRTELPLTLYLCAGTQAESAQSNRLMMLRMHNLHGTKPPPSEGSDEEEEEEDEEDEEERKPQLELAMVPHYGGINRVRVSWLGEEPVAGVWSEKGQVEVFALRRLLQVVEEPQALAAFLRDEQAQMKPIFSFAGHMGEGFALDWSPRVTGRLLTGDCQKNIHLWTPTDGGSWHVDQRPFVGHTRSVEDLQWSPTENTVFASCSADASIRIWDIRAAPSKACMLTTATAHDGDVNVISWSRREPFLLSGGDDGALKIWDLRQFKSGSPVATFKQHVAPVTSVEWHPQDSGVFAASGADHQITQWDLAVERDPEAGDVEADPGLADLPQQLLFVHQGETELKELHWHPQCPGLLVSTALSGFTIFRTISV

This is one part of the list. Most entries show no effect beyond the scatter of the controls.

Compound in this assay: Cc1nc(Nc2ncc(C(=O)Nc3c(C)cccc3Cl)s2)cc(N2CCN(CCO)CC2)n1 [dasatinib]
In words: log2 fold change of tryptic peptide abundance, ligand vs vehicle (limited proteolysis) (log2 ratio); higher = more trypsin-susceptible (destabilized). The conditions noted are these: ligand concentration: 5 uM; sample: K562 cleared lysate.
Consider “UniProt Q9BUH6 (peptide sequence: FGLSAAEDITPR, peptide start residue: 64)”, for which the log2 fold change is 0.0867.
The result for “UniProt Q9BS31 (peptide sequence: GNLNIHQR, peptide start residue: 331)” reads 0.457; that for “BUD13 (peptide sequence: YLSGADAGVDRGSESGR, peptide start residue: 16) (UniProt Q9BRD0)”, -0.187.
“TCF25 (peptide sequence: LSPISHGNTIALFFR, peptide start residue: 601) (UniProt Q9BQ70)”: the log2 fold change was -0.35.
Then “RIOK1 (peptide sequence: TSILVFKDRDK, peptide start residue: 212) (UniProt Q9BRS2)”, with -0.552; and “UniProt Q9BRT2 (peptide sequence: LCEEWPVDETKR, peptide start residue: 12)”, with -0.66.
Take “UniProt Q9BTE0 (peptide sequence: LNQNTLLLGK, peptide start residue: 3)”: the log2 fold change was -0.0404.
On to “UniProt Q99766 (peptide sequence: AASEWLLR, peptide start residue: 65)”, for which the log2 fold change was -0.0275.
Regarding “PPP1R9B (peptide sequence: LLDKISELEGNLQTLR, peptide start residue: 797) (UniProt Q96SB3)”, the log2 fold change is -0.286.
Take “AARSD1 (peptide sequence: TTSWELGR, peptide start residue: 127) (UniProt Q9BTE6)”: the log2 fold change turned out to be 0.477.
Then “MPHOSPH8 (peptide sequence: GLWSTDSAEEDKETKR, peptide start residue: 397) (UniProt Q99549)”, with -0.523; and “UniProt Q9BRX9 (peptide sequence: VSDHEILAGSVDGR, peptide start residue: 161)”, with -0.0363; and “LYSMD1 (peptide sequence: RLEHQLEPGDTLAGLALK, peptide start residue: 39) (UniProt Q96S90)”, with -0.101.
The result for “EBNA1BP2 (peptide sequence: QCLAEFKR, peptide start residue: 55) (UniProt Q99848)” reads -0.149; that for “LPIN3 (peptide sequence: WDDKVVISDIDGTITK, peptide start residue: 636) (UniProt Q9BQK8)”, 0.345.
Regarding “UBL7 (peptide sequence: SMPSSSYR, peptide start residue: 211) (UniProt Q96S82)”, the log2 fold change is -0.143.
The result for “UniProt Q9BRH9 (peptide sequence: TQECSAFDR, peptide start residue: 180)” reads 0.347; that for “SRPK1 (peptide sequence: IIHTDIKPENILLSVNEQYIR, peptide start residue: 209) (UniProt Q96SB4)”, 0.185.
As for “RNF2 (peptide sequence: VNKPMELYYAPTKEHK, peptide start residue: 321) (UniProt Q99496)”, the log2 fold change was 0.12.
As for “CDK5RAP1 (peptide sequence: LKDDVPEEVK, peptide start residue: 486) (UniProt Q96SZ6)”, the log2 fold change stood at 0.438.
The result for “FIZ1 (peptide sequence: LLLGPAGGGVPK, peptide start residue: 293) (UniProt Q96SL8)” reads -0.515; that for “ARHGAP9 (peptide sequence: VSGNLAVVQK, peptide start residue: 579) (UniProt Q9BRR9)”, 0.13; that for “UniProt Q9BQ61 (peptide sequence: GGPGSTLSFVGKR, peptide start residue: 107)”, 0.131.
Consider “ANP32E (peptide sequence: KKINLELR, peptide start residue: 5) (UniProt Q9BTT0)”, for which the log2 fold change is -0.108.
As for “PKMYT1 (peptide sequence: KLAEVGSHEK, peptide start residue: 154) (UniProt Q99640)”, the log2 fold change is -1.2.
The result for “CCDC77 (peptide sequence: SWMLEKDNLMSK, peptide start residue: 302) (UniProt Q9BR77)” reads 0.198; that for “UniProt Q9BSH4 (peptide sequence: FICDASSLHQVRK, peptide start residue: 232)”, 0.299; that for “MPHOSPH9 (peptide sequence: EISGVEDWK, peptide start residue: 477) (UniProt Q99550)”, -0.536.
In the case of “CABLES2 (peptide sequence: FLYPTNALVTHK, peptide start residue: 245) (UniProt Q9BTV7)”, the log2 fold change was found to be 0.11.
As to “CCDC28B (peptide sequence: LQAFGKECSFEQLEHVR, peptide start residue: 107) (UniProt Q9BUN5)”, the log2 fold change stood at 0.784.
As for “DOHH (peptide sequence: VVRESCEVALDMYEHETGR, peptide start residue: 268) (UniProt Q9BU89)”, the log2 fold change is 0.492.
“CNN2 (peptide sequence: CASQVGMTAPGTRR, peptide start residue: 215) (UniProt Q99439)”: the log2 fold change was -0.0942.
Then “UniProt Q9BQE4 (peptide sequence: AAAAVEPDVVVK, peptide start residue: 66)”, with 0.25; and “VRK1 (peptide sequence: LLDYTEKPLYENLR, peptide start residue: 308) (UniProt Q99986)”, with -0.15.
Then “GRWD1 (peptide sequence: SGSPVATFK, peptide start residue: 342) (UniProt Q9BQ67)”, with -0.0868.
As to “UniProt Q9BU61 (peptide sequence: LSPADDELYQR, peptide start residue: 34)”, the log2 fold change was -0.0105.
As for “UHRF1 (peptide sequence: REEEEQQEGGFASPR, peptide start residue: 627) (UniProt Q96T88)”, the log2 fold change was -0.487.
For “C7orf50 (peptide sequence: ELTVQKAEALMR, peptide start residue: 157) (UniProt Q9BRJ6)”, the log2 fold change is -0.279.
